Experimental data: PubChem BioAssay AID1259266 (Sanger Institute, 2017)

- Aim: 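Essential genes and drug synergy among kinases and colorectal-mutated genes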 (primary screen)
- Cell system: LS123 human colorectal cancer cells
- Reagent: siRNA pool against human genes
- Conditions: anchor drugs BYL719 (1 µM), cetuximab (5 µg/ml) or trametinib (10 nM), each chosen to barely slow growth alone; DMSO vehicle as the drug-free arm
- Detection: 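Viability relative to non-targeting control pools, replicate mean, with a robust z-score for knock-down alone and synergy scores for each anchor drug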
- Direction: robust z-score, knock-down alone: higher = more cells surviving after knock-down; viability, knock-down alone: higher = more viable cells; synergy score with trametinib and synergy score with BYL719 and synergy score with cetuximab: higher = stronger synthetic lethality with drug
- Hit rule: 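Essential when the robust z-score of the knock-down alone is below -3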
- Meaning of the calls: active = essential (knock-down alone cuts viability); inactive = no change
The whole screen tested 794 reagents; shown is an unselected part. Of all reagents, 16 (2%) got an active call. 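Calls reflect knock-down alone, not drug synergy; viability seems capped at 1 and z-scores at 0.585.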 No sequences are given here. Not stated in the record: the amount of reagent, the time to read-out.

The opening 2 records, to show the layout:
no.	gene knocked down	robust z-score, knock-down alone	viability, knock-down alone (fraction of control)	synergy score with trametinib	synergy score with BYL719	synergy score with cetuximab	Outcome
1	MAP2K6	0.585	1	-0.000131	-0.0875	-0.00984	inactive
2	ACSL6	0.585	1	-0.156	-0.159	-0.0122	inactive

Results, from the start:
no.	gene knocked down	robust z-score, knock-down alone	viability, knock-down alone (fraction of control)	synergy score with trametinib	synergy score with BYL719	synergy score with cetuximab	Outcome
1	MAP2K6	0.585	1	-0.000131	-0.0875	-0.00984	inactive
2	ACSL6	0.585	1	-0.156	-0.159	-0.0122	inactive
3	PIP4K2A	0.585	1	-0.13	-0.159	-0.0122	inactive
4	ADK	0.585	1	-0.135	-0.0814	-0.0122	inactive
5	N4BP2	0.585	1	-0.0157	-0.128	-0.0122	inactive
6	AXL	0.585	1	-0.0743	-0.0437	-0.0122	inactive
7	CDKN2D	-1.34	0.886	-0.0203	-0.0419	0.00202	inactive
8	HK2	-1.81	0.858	-0.101	-0.121	0.00613	inactive
9	MPP1	0.585	1	-0.0723	-0.0912	-0.0122	inactive
10	CSNK2A2	-1.97	0.848	-0.00919	0.0498	-0.035	inactive
11	DGKA	0.506	0.995	-0.0642	-0.0838	-0.0169	inactive
12	TGFBR2	0.585	1	-0.03	-0.0415	0.0114	inactive
13	PRKAA2	0.585	1	-0.184	-0.0587	-0.0122	inactive
14	PAK4	0.585	1	0.00224	0.0254	-0.0122	inactive
15	ADCK5	0.499	0.995	-0.0745	0.00425	0.0578	inactive
16	ALK	0.486	0.994	-0.0154	0.0229	0.0307	inactive
17	CAMK2N1	-1.63	0.868	-0.126	-0.02	-0.119	inactive
18	IDH2	0.0637	0.969	-0.153	-0.0873	-0.0428	inactive
19	PRAG1	-0.00245	0.965	0.0738	0.00155	0.0626	inactive
20	STRADA	0.585	1	-0.128	-0.149	-0.0122	inactive
21	PDGFRB	-2.54	0.815	-0.0508	-0.0631	-0.0253	inactive
22	PKMYT1	0.585	1	-0.0324	-0.128	-0.0122	inactive
23	KRAS	0.376	0.988	0.0192	-0.0471	-0.0165	inactive
24	PRPS2	-0.656	0.926	-0.19	-0.162	-0.085	inactive
25	CIB2	-0.306	0.947	-0.0326	-0.0906	0.0701	inactive
26	CDK11A	0.585	1	-0.143	-0.159	-0.0122	inactive
27	CDC42BPG	0.585	1	-0.127	-0.159	-0.0122	inactive
28	TSSK1B	0.585	1	-0.168	-0.159	-0.0122	inactive
29	NEK2	-0.884	0.913	-0.0196	-0.146	0.0128	inactive
30	NTRK1	-0.464	0.938	0.0982	0.059	0.126	inactive
31	LMTK3	0.585	1	0.0351	0.0397	0.0102	inactive
32	UCKL1	0.479	0.994	0.138	-0.00238	0.0748	inactive
33	RPS6KA4	-1.03	0.904	0.0343	-0.0084	0.0791	inactive
34	EPHA8	-0.032	0.963	-0.104	-0.117	-0.0484	inactive
35	FGFR3	0.585	1	-0.105	0.00252	-0.0122	inactive
36	CLSPN	0.00826	0.966	-0.0372	-0.0437	-0.00124	inactive
37	FLT1	0.585	1	-0.111	-0.159	-0.0122	inactive
38	NRAS	0.289	0.982	-0.0453	-0.0783	-0.0296	inactive
39	CDC42BPA	0.292	0.983	0.00757	-0.0196	0.0789	inactive
40	KHK	-1.5	0.876	-0.177	-0.142	-0.0541	inactive
41	PRKAR1B	-0.827	0.916	-0.122	-0.18	0.00337	inactive
42	SPEG	-0.365	0.944	-0.15	-0.12	-0.0679	inactive
43	MAP3K14	0.585	1	-0.0589	-0.0992	0.00427	inactive
44	CAMK1	0.585	1	-0.0781	-0.0362	0.000246	inactive
45	MYO3A	0.585	1	-0.0355	-0.157	-0.0122	inactive
46	TYK2	0.585	1	-0.0692	-0.0451	-0.0122	inactive
47	MAP4K3	-1.39	0.883	-0.0211	-0.125	-0.0911	inactive
48	GK2	0.585	1	-0.186	-0.142	-0.0122	inactive
49	TRIB1	-1.42	0.881	-0.128	-0.14	-0.0685	inactive
50	MAPK9	0.142	0.974	-0.0367	-0.105	-0.0382	inactive
